{"source": "PubChem BioAssay AID686938 (Drosophila RNAi Screening Center, 2013)", "screen": "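Knock-downs reducing store-operated calcium influx in Drosophila cells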 (primary screen)", "system": "Drosophila S2R+ cells", "knock-down reagent": "long dsRNA against Drosophila genes, about 0.25 µg dsRNA per well, roughly 10,000 cells", "timing": "5 days of knock-down before the calcium assay", "challenge": "thapsigargin (SERCA pump blocker) to empty calcium stores; entry signal taken 4 min after adding it", "measurement": "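Duplicate raw fluo-4 intensities per well from a plate reader, at rest and four minutes after thapsigargin emptied calcium stores; entry-to-rest ratio filled for only some wells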", "reading the numbers": "calcium entry signal: higher = stronger calcium signal after store depletion; resting calcium signal: higher = higher resting calcium signal", "call rule": "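Hit if the duplicate-averaged plate z-score for entry over resting signal is under −3; wells with weak total dye signal (Fmax z < −2) or more than 5 off-targets removed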", "meaning of the calls": "active = strongly reduced calcium entry; inactive = no strong reduction", "note": "The screen tested about 23,000 reagents; this is a random part of those with a known target gene and a result. Of all reagents, 75 (0.33%) are marked active. 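Raw plate signals without normalisation; calls rest on plate z-scores that were not deposited; ratio present for only 364 wells.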 The numbers tell different reagents against one gene apart. Names joined by + are all predicted targets of the reagent. Not given: the dose of the treatment."}
{"predicted target": "Irc (Immune-regulated catalase)", "reagent": 1, "calcium entry signal, replicate 1 (fluorescence units)": 3.47e7, "calcium entry signal, replicate 2 (fluorescence units)": 2.79e7, "resting calcium signal, replicate 1 (fluorescence units)": 1.68e7, "resting calcium signal, replicate 2 (fluorescence units)": 1.30e7, "outcome": "inactive"}
{"predicted target": "Rcd4 (Reduction in Cnn dots 4)", "reagent": 1, "calcium entry signal, replicate 1 (fluorescence units)": 2.92e7, "calcium entry signal, replicate 2 (fluorescence units)": 5.52e7, "resting calcium signal, replicate 1 (fluorescence units)": 1.40e7, "resting calcium signal, replicate 2 (fluorescence units)": 2.17e7, "outcome": "inactive"}
{"predicted target": "CG15641", "reagent": 1, "calcium entry signal, replicate 1 (fluorescence units)": 2.78e7, "calcium entry signal, replicate 2 (fluorescence units)": 3.43e7, "resting calcium signal, replicate 1 (fluorescence units)": 1.45e7, "resting calcium signal, replicate 2 (fluorescence units)": 1.53e7, "outcome": "inactive"}
{"predicted target": "CG7990", "reagent": 1, "calcium entry signal, replicate 1 (fluorescence units)": 2.95e7, "calcium entry signal, replicate 2 (fluorescence units)": 3.98e7, "resting calcium signal, replicate 1 (fluorescence units)": 1.54e7, "resting calcium signal, replicate 2 (fluorescence units)": 1.70e7, "outcome": "inactive"}
{"predicted target": "CG7990", "reagent": 2, "calcium entry signal, replicate 1 (fluorescence units)": 5.90e7, "calcium entry signal, replicate 2 (fluorescence units)": 6.31e7, "resting calcium signal, replicate 1 (fluorescence units)": 2.76e7, "resting calcium signal, replicate 2 (fluorescence units)": 2.56e7, "outcome": "inactive"}
{"predicted target": "CG7990", "reagent": 3, "calcium entry signal, replicate 1 (fluorescence units)": 4.63e7, "calcium entry signal, replicate 2 (fluorescence units)": 2.44e7, "resting calcium signal, replicate 1 (fluorescence units)": 2.25e7, "resting calcium signal, replicate 2 (fluorescence units)": 1.06e7, "outcome": "inactive"}

Limited to “calcium entry signal, replicate 1 (fluorescence units)”, for 2 of the entries above:
Rcd4 (Reduction in Cnn dots 4): 2.92e7
CG15641: 2.78e7

Further entries:
{"predicted target": "BEAF-32 + CG42254 (retired record)", "reagent": 1, "calcium entry signal, replicate 1 (fluorescence units)": 2.81e7, "calcium entry signal, replicate 2 (fluorescence units)": 2.92e7, "resting calcium signal, replicate 1 (fluorescence units)": 1.24e7, "resting calcium signal, replicate 2 (fluorescence units)": 1.28e7, "outcome": "inactive"}
{"predicted target": "mRpS17 (mitochondrial ribosomal protein S17)", "reagent": 1, "calcium entry signal, replicate 1 (fluorescence units)": 3.66e7, "calcium entry signal, replicate 2 (fluorescence units)": 3.36e7, "resting calcium signal, replicate 1 (fluorescence units)": 1.73e7, "resting calcium signal, replicate 2 (fluorescence units)": 1.56e7, "outcome": "inactive"}
{"predicted target": "CG8563", "reagent": 1, "calcium entry signal, replicate 1 (fluorescence units)": 2.88e7, "calcium entry signal, replicate 2 (fluorescence units)": 4.54e7, "resting calcium signal, replicate 1 (fluorescence units)": 1.35e7, "resting calcium signal, replicate 2 (fluorescence units)": 1.86e7, "outcome": "inactive"}
{"predicted target": "CG12693", "reagent": 1, "calcium entry signal, replicate 1 (fluorescence units)": 2.86e7, "calcium entry signal, replicate 2 (fluorescence units)": 5.02e7, "resting calcium signal, replicate 1 (fluorescence units)": 1.39e7, "resting calcium signal, replicate 2 (fluorescence units)": 2.29e7, "outcome": "inactive"}
{"predicted target": "a10 (antennal protein 10)", "reagent": 1, "calcium entry signal, replicate 1 (fluorescence units)": 3.34e7, "calcium entry signal, replicate 2 (fluorescence units)": 4.76e7, "resting calcium signal, replicate 1 (fluorescence units)": 1.70e7, "resting calcium signal, replicate 2 (fluorescence units)": 1.81e7, "outcome": "inactive"}
{"predicted target": "CG11791", "reagent": 1, "calcium entry signal, replicate 1 (fluorescence units)": 4.32e7, "calcium entry signal, replicate 2 (fluorescence units)": 4.83e7, "resting calcium signal, replicate 1 (fluorescence units)": 2.39e7, "resting calcium signal, replicate 2 (fluorescence units)": 2.17e7, "outcome": "inactive"}
{"predicted target": "CG30432", "reagent": 1, "calcium entry signal, replicate 1 (fluorescence units)": 3.01e7, "calcium entry signal, replicate 2 (fluorescence units)": 4.59e7, "resting calcium signal, replicate 1 (fluorescence units)": 1.49e7, "resting calcium signal, replicate 2 (fluorescence units)": 2.06e7, "outcome": "inactive"}
{"predicted target": "Wdr33 (WD repeat domain 33)", "reagent": 1, "calcium entry signal, replicate 1 (fluorescence units)": 2.42e7, "calcium entry signal, replicate 2 (fluorescence units)": 2.99e7, "resting calcium signal, replicate 1 (fluorescence units)": 1.09e7, "resting calcium signal, replicate 2 (fluorescence units)": 1.44e7, "outcome": "inactive"}
